Measurements from article PMC3984077.
Results are given in words; binding and its absence hold for the method and conditions named.

Biological target: T1, HasSCTD, the last 78 residues of the antisigma factor HasS of Serratia marcescens (Serratia marcescens) (UniProt Q79AD3)
T1 sequence: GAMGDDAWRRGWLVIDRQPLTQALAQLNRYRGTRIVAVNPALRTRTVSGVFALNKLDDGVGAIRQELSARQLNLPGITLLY
Experiment: AUC; sedimentation velocity, 20°C, 42 000 rpm, HasSCTD at 86 µM and 14 µM in buffer with detergent, c(S) model; both purified

HasSCTD, the last 78 residues of the antisigma factor HasS of Serratia marcescens (from UniProt Q79AD3 240-317) (domain or fragment)
binding: no binding (tested: 86 µM and 14 µM)
